Library screen at single concentrations

Protein sequences, listed by entry. Tags and fused reporters are not part of them. Residues count along the entry.
UniProt A4I591, 1-473: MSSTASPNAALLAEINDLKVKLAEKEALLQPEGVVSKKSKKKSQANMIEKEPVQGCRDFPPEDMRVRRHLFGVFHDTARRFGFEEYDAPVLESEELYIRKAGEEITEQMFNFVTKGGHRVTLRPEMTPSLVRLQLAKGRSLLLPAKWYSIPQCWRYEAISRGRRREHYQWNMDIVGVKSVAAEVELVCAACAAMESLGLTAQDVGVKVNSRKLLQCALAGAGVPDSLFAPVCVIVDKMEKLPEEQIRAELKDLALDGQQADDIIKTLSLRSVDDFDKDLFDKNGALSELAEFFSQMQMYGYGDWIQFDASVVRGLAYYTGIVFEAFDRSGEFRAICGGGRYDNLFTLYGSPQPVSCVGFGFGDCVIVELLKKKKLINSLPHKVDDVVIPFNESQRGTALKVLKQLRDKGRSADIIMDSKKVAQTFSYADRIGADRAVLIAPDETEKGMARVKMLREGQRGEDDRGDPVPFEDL
UniProt Q8IDJ8, 1-583: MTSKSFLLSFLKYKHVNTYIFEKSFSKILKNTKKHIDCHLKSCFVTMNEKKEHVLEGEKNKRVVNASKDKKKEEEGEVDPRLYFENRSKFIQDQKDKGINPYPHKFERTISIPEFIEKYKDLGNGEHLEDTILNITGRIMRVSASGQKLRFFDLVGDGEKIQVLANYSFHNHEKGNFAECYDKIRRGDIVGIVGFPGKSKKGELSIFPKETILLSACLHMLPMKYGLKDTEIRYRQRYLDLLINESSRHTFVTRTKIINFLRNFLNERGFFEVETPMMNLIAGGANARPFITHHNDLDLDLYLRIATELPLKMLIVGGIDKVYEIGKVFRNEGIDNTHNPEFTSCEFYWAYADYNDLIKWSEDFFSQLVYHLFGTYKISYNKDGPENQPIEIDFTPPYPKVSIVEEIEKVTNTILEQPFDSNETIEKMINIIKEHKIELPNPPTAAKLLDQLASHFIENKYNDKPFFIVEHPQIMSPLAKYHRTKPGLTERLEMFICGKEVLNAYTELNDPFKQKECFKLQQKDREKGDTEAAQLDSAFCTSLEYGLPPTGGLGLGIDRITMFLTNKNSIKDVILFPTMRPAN
UniProt Q4DA54, 1-478: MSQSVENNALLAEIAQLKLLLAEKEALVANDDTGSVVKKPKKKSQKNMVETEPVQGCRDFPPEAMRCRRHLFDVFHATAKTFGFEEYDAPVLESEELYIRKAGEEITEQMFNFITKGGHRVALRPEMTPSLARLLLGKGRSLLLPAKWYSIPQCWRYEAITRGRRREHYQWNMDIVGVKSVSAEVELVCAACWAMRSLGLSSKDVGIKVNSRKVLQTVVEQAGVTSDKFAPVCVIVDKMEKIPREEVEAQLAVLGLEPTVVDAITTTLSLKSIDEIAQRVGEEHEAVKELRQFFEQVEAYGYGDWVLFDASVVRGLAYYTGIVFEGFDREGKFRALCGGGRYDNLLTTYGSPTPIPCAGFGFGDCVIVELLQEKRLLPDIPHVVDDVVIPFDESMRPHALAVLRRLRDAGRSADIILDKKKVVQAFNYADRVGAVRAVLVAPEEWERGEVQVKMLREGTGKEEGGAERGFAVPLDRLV

LiHisRS: 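Histidine-tRNA ligase, Leishmania infantum (UniProt A4I591). Enzyme assay of histidyl-tRNA synthetase; the read-out is not stated. Compounds at 30 µM. Higher reads as stronger inhibition (inferred: compounds with an IC50 in retests scored well above the rest). The assay is labelled LdHisRS but filed under L. infantum. About 69,000 compounds were tested under these conditions; 0.6% (about 410) showed 50% or more at least once.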
PfKRS1: 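Lysine-tRNA ligase, Plasmodium falciparum 3D7 (UniProt Q8IDJ8). Enzyme assay of the cytosolic lysyl-tRNA synthetase in 384-well plates, read by luminescence. Tested at 30 µM. Higher reads as stronger inhibition, judged from the few compounds that gave an IC50. About 69,000 compounds were tested under these conditions; 0.071% (about 49) showed 50% or more at least once.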
TcHisRS: 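Enzyme assay of histidyl-tRNA synthetase; the read-out is not stated. Target: Histidine-tRNA ligase, Trypanosoma cruzi CL Brener (UniProt Q4DA54). Compounds at 30 µM. Direction is inferred from retests: higher values go with stronger inhibition. Size under these conditions: about 69,000 compounds, about 31 of them at 50% or above in at least one test.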

Each number is a percent effect as filed. The controls that fix the scale are not given in the record; negative values are as filed. The compounds are a random part of those screened.

SMILES,LiHisRS,PfKRS1,TcHisRS
CN(C)C(=O)c1ccc2c(c1)N(C)C(CC(=O)NC(CO)CO)CO2 (stereo not shown),9.091%,-4.558%,-11.64%
CNC(=O)C1(c2cnccn2)CCCN1C(=O)c1ccccc1F (stereo not shown),15.62%,3.04%,9.574%
Cc1cccc(CN2C[C@@H]3COC[C@]3(CNC(=O)c3ccccc3)C2)n1,3.636%,0.758%,2.479%
CCn1nc(CC(C)C)cc1C(=O)N1CCN([C@H]2CCCC[C@@H]2O)CC1,15.15%,2.796%,7.609%
Cc1nc(N(C)CCCc2nccn2C)c2c(C)nn(C)c2n1,8.264%,29.38%,5.042%
Cc1ncc(-c2ccccn2)c(CCNC(=O)C2CCCC2)n1,4.286%,-1.633%,8.046%
COCCN1CCC2(COCc3cnc(N(C)C)nc32)C1 (stereo not shown),18.92%,8.743%,0.4975%
Cc1nnc(N2CCCC2)c(C(N)=O)c1C,16%,7.22%,0.9804%
COCCCN1CCC(C(=O)c2cc(F)ccc2F)CC1,20%,0.9227%,10.53%
Cc1cc(C(F)(F)F)nc(CNC(=O)CCC2CCCCN2C)n1 (stereo not shown),17.02%,3.28%,8.671%
CCS(=O)(=O)N1CCC(c2nnc(CN3CCCC3)n2C2CC2)CC1,20.39%,5.918%,1.245%
O=C(NCc1ccccn1)C1=NN(c2ccccc2)C(=O)CN1,18.64%,0.8682%,2.286%
Cc1ccc(OCCN(C)Cc2cscn2)cc1,9.244%,8.814%,1.961%
O=C(Cc1csc(-c2ccsc2)n1)N1CCN(c2cnccn2)CC1,7.826%,-0.1413%,3.38%
CCOc1ccccc1CSc1nnc(CC2CCS(=O)(=O)C2)n1C (stereo not shown),13.21%,2.879%,-4.237%
Cc1ccccc1CNC(=O)Cc1c(C)nc2cc(=O)[nH]n2c1C,40.8%,8.259%,1.141%
COCCC(=O)N1CCCC(c2n[nH]cc2C)C1 (stereo not shown),7.092%,-1.087%,4.651%
Cc1cc(=O)n(CC(=O)NCC2CCCO2)c(-c2ccccc2)n1 (stereo not shown),14.16%,0.1507%,-2.632%
CC(C)CC(=O)NCCCc1cc(N)n(-c2ccccc2)n1,22.22%,-2.756%,-1.84%
Cn1ccnc1SCCNC1CCN(c2ncccn2)CC1,24.66%,2.251%,2.186%
CCC(=O)N1CCN(C(=O)Nc2ccccc2-c2cccs2)CC1,20%,2.422%,5.195%
O=C(O)c1ccc2[nH]cc(CN3CCOCC3)c2c1,15.25%,8.253%,6.341%
N#Cc1ccc(C(=O)N2CCc3c(COCC4CC4)cncc3C2)cc1,8.108%,5.681%,3.315%
CC(C)NC(=O)N1CCOC2(CCNCC2)C1,23.3%,4.979%,6.796%
Cc1n[nH]c(C2CN(Cc3csc(C4CCCC4)n3)CCO2)n1 (stereo not shown),13.7%,6.662%,0%
CCC(CC)c1cc(CNC(=O)N2CCC(n3cncn3)CC2)on1,8.197%,-2.325%,-2.326%
O=C(NCCCn1cncn1)c1ccc(-c2ccccc2)[nH]c1=O,-8.602%,4.543%,6.173%
O=C(c1ccc(C2CCCO2)s1)N1CCOCC1 (stereo not shown),11.48%,-3.103%,-4.651%
Cc1nc(N2CCCC2)nc2c1CN(C(=O)c1ccco1)CC2,12%,0.3543%,6.897%
Cc1nc(C)n(CC2CCCN2Cc2ncc(-c3ccccc3)o2)n1 (stereo not shown),15.65%,-0.3705%,10.34%
CC(C)n1ccnc1CNC(=O)c1cccc(CCC(C)(C)O)c1,11.11%,3.662%,3.03%
Cn1cc(CN2CCCC3(CCCN3S(C)(=O)=O)C2)cn1 (stereo not shown),15.69%,9.594%,3.825%
COc1cc2[nH]c(=O)c(CN3CCC[C@H]3CO)cc2c(OC)c1OC,22.22%,0.7197%,-17.95%
Cc1ncnc2c1CCN(C(=O)CN(C)C)CC2,-8.772%,-4.203%,7.527%
CC(=O)N1CCN(c2cc(CCNC(=O)C(C)C)nc(C3CC3)n2)CC1,15.62%,2.032%,8.511%
COc1cc(C(=O)NCCc2ccc(Cl)cc2)on1,10.43%,3.18%,1.031%
O=C1NCC(C(=O)Nc2ncc(Cc3ccccc3F)s2)N1 (stereo not shown),8.772%,0.6612%,2.006%
O=C(C1CC1)N1CCC(Nc2nc(O)cc(-c3ccsc3)n2)CC1,12.08%,0.8443%,3.143%
O=C(CCC(=O)N1CCC(OCc2cccnc2)CC1)c1ccccc1,20.78%,2.746%,-2.424%
CC(C(=O)N1CCOCC1)S(=O)(=O)Cc1nc(C(C)(C)C)no1 (stereo not shown),11.84%,4.809%,5.419%
CNCc1cn(C[C@H]2CC3CCN2C[C@@H]3C(=O)Nc2ccccc2)nn1 (stereo partly shown),-22.22%,5.149%,6.931%
Cc1noc(C)c1CN1CC[C@@H]2O[C@@H](COCC3CC3)CC[C@@H]21,30.56%,3.637%,5.473%
Cc1ccc(-n2c(SCC(=O)O)nnc2-c2cccc(C)c2)cc1,-4%,2.061%,0.7491%
Cn1cccc1C(=O)N1CCCC(Cn2cc(CO)nn2)C1 (stereo not shown),27.42%,-0.8145%,9.649%
O=C(COCC1CC1)N1CCCC(n2cncn2)C1 (stereo not shown),9.524%,0.8429%,2.256%
COc1cc(NCCCSc2nnc(C)s2)ncn1,6.667%,6.878%,1.739%
Cc1ccc(CCNc2nc(-c3ccncc3)nc3c2CCNCC3)o1,22.37%,1.55%,28.26%
O=C1C(N2CC[C@@H](O)C2)CCCN1Cc1cccc(C(F)(F)F)c1 (stereo partly shown),3.614%,-3.095%,5.473%
Cc1nc(NCC2CC2)nc2c1COCC21CCNC1 (stereo not shown),6%,-1.388%,-0.9804%
Cc1cccc(NC(=O)C2CSCN2C(=O)c2cnccn2)c1C (stereo not shown),13.89%,1.118%,8.504%
Clc1cccc(Cl)c1-c1nnc(CNCCn2cccn2)o1,5.085%,-0.9471%,2.286%
Cc1cc(CN2CCN(C(=O)C3(C#N)CCCCC3)CC2)on1,4.167%,3.207%,6.329%
O=C(COCC1CC1)Nc1ncn(CC(=O)N2CCCCCC2)n1,3.67%,1.081%,7.059%
Cc1nc(O)cc(C2CCCN(C(=O)c3cccc(N(C)C)c3)C2)n1 (stereo not shown),10.67%,-4.491%,3.804%
Cc1cc(C(=O)N2CCOCC2c2nc(C)c[nH]2)nc(O)n1 (stereo not shown),13.04%,-0.626%,8.333%
CC(=O)Nc1cccc(Cn2nc(C)nc2C)c1,12.28%,5.194%,0.8403%
CN1CCC(Cc2cc(Nc3ccccn3)ncn2)CC1,-5.208%,1.288%,0%
CC(C(=O)NCCN1CCCCC1)n1cncn1 (stereo not shown),16.67%,2.262%,1.734%
CC(O)c1cn(Cc2ccccc2)nn1 (stereo not shown),18.75%,4.594%,9.375%
CN(C)c1ncc2c(O)nc(C3CCCNC3)cc2n1 (stereo not shown),2.857%,-0.03504%,-0.3831%
Cc1noc(C(C)Nc2ccc3c(c2)CCC3)n1 (stereo not shown),9.375%,-1.251%,-0.5525%

Some entries from above, unchanged:

SMILES	LiHisRS	PfKRS1	TcHisRS
Cc1cc(CN2CCN(C(=O)C3(C#N)CCCCC3)CC2)on1	4.167%	3.207%	6.329%
CC(C)n1ccnc1CNC(=O)c1cccc(CCC(C)(C)O)c1	11.11%	3.662%	3.03%
O=C(COCC1CC1)N1CCCC(n2cncn2)C1 (stereo not shown)	9.524%	0.8429%	2.256%
CN(C)C(=O)c1ccc2c(c1)N(C)C(CC(=O)NC(CO)CO)CO2 (stereo not shown)	9.091%	-4.558%	-11.64%
Clc1cccc(Cl)c1-c1nnc(CNCCn2cccn2)o1	5.085%	-0.9471%	2.286%

Measurements from “University of Dundee, Small-Polar-MMV Screening Library” (2021), ChEMBL document CHEMBL3988442.